Test results as given in doi:10.1101/2024.02.28.577416.
Residue numbers refer to the chain shown, from its start. Construct, isoform or probe ends are uncertain for at least one entry. For some assays here: A negative result means that nothing was seen under these conditions. Protein sequences can lack the tags named with them.

Legend:
[1] = target: T1, SCO4122 (MarR family regulator) (Streptomyces coelicolor) (UniProt Q9KYE8); assay: SPR
T1 sequence (looked up, limits assumed): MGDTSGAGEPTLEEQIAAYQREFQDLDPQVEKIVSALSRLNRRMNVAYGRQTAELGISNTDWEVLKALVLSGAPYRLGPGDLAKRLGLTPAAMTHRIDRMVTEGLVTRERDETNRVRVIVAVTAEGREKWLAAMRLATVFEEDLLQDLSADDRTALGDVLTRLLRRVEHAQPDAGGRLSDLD

[2] = target: T2, M93L-SCO4122 (Streptomyces coelicolor) (UniProt Q9KYE8); assay: SPR; conditions: protein immobilized on CM5, no drug
T2 sequence (looked up, limits assumed): T1 sequence (looked up, limits assumed) with M93L

[3] = protein immobilized on CM5, no drug

“CTCTCCTACTCCCCCAGCTACCGCTGTGCCACTGCCACTTACTTGCCGCCCGGCAAGTTGTCTACACTGGGAAAGGTAGGCGCGTAACTAGCCGGGCGTCAAGTAAGTTTTTCGGAAAGTGCGCGGGGCAGGAGGTGCGTAGGAGGATGGGCGGCACG (double strand) [Non-specific (NS) DNA, SCO3366 promoter region]”: no binding [1, 3].
With “TGCCCTGGTCACGTTCACCCTCTCTTGATCTCTCGGATCGTCCGCTCCAGCCGTTAGAGCTGAAGACTTAGAAGCTAAAGTTCGAAGGTGAAGAGTACATATCGAAGGACTTCAAAGCAAAGGAGTTGCGTGCCATACTGCGGCC (double strand)” the Kd [1, 3] was 400 nM and the Kd [2] was 2110 nM.
For “TGCCCTGGTCACGTTCACCCTCTCTTGATCTCTCGGATCGTCCGCTCCAGCCGTTAGAGCTGAAGACTTAGAAGCTAAAGTTCGAAGGTGAAGAGTACATATCGAAGGACTTCAAAGCAAAGGAGTTGCGTGCCATACTGCGGCC (double strand) [5' biotinylated sco4121 control region]”, the Kd ([1]; DNA immobilized on SA chip, no drug) was 226 nM, the Kd ([1]; chloramphenicol (50-200 nM), 2 uM protein) was 81.8 nM and the Kd ([1]; ciprofloxacin (5-20 nM), 2 uM protein) was 3.1 nM. For the same sequence, the Kd ([1]; streptomycin (50-200 nM), 2 uM protein) was 9.1 nM and the binding result ([1]; tetracycline (5-20 nM), 2 uM protein, no change in KD) was “binds”.
